Columns and labels:
[1] = system: protein tyrosylphosphorylation of hepatic S-9 proteins; experiment: Immunoblot / densitometry of hepatic S-9 phosphotyrosyl proteins, mice dosed i.p.; assay type: in vivo, C57BL/6 mice
Description: Female, C57BL/6 mice (or any cytochrome P-450IA1 inducible strain) were obtained from Harton Sprague Dawley (Indianapolis, Ind.). Experiments were performed using four to six week old, female mice weighing approximately 16 to 20 g. Mice were fed Prolab RMH 1000 rat, mouse and hamster food (Agway, Cortland, N.Y.) and received tap water ad libitum. All mice were housed three to five per cage and maintained on a photoperiod of 12 hours. Mice were killed 24 hours following an intraperitoneal injection of either corn oil alone or TCDD (Analabs) at 0.25, 0.5, 1, 2, 4, 10, 50 μg/kg, the volume of the injections ranged from 0.1 to 0.2 ml per mouse. Hepatic S-9 fractions were prepared by homogenizing the liver in 3 times the volume of 0.15M KCl. Following a 9000×g centrifugation for 20 minutes, the supernatant (S-9) fraction was carefully removed and quickly frozen for storage at -80° C.
The separation of S-9 proteins by means of SDS PAGE was performed by mixing the S-9 1:1 with a double strength sodium dodecyl sulfate sample buffer and heating the solution at 100° C. for 3 minutes prior to one-dimensional SDS polyacrylamide gel electrophoresis with 10% polyacrylamide. […] Complete transfers were accomplished in 25-30 minutes at 500 mA and were assessed by tracking pre-stained molecular weight standards onto the membrane filter. […]

[2] = system: protein tyrosylphosphorylation in X3 human lymphoblastoma cells; experiment: Immunoblot / densitometry of X3 cell lysate phosphotyrosyl proteins; assay type: cell-based
Description: The indicated densitometric measurements were made on a BioImage AK Kodak Visage 110.
The X3 human lymphoblastoma cells (Genetest, Wolburn, Mass.) were grown in 75 cm^2 T-flasks in RPMI 1640 medium (Gibco) containing 9% horse serum. Any cell or cell line expressing cytochrome P-450IA1 may be used. The cells were cultured at 37° C. in a 5% CO2 (balance air) environment. Cells were subcultured by centrifuging (1000 rpm, 3 minutes) and resuspended in fresh media to a volume of 50 mL (at a cell density of 1.0×10^6 cells/mL). The TCDD-corn oil solution was homogenized with serum to a final concentration of 0.10 μg/mL. The TCDD-serum was added at concentrations of 0, 0.02, 0.05, 0.1, 0.5 and 1.0 nM per flask and incubated for 16 hours. After the appropriate incubation time, the cells were harvested by centrifugation and washed three times (PBS, […]). A final cell count was then determined.
The separation of cell lysate proteins by means of SDS PAGE was performed by mixing the cell lysate 1:1 with a double strength sodium dodecyl sulfate sample buffer and heating the solution at 100° C. for 3 minutes prior to one-dimensional SDS polyacrylamide gel electrophoresis with 10% polyacrylamide. After electrophoresis, a Milliblot SDE electroblot apparatus (Millipore, Bedford, Mass.) was used to transfer the proteins from the polyacrylamide gels to an Immobilon™ membrane filter (Millipore). Complete transfers were accomplished in 25-30 min at 500 mA and were assessed by tracking pre-stained molecular weight standards onto the membrane filter. Membrane filters were blocked by incubating in TBS (Tris buffered saline) containing 5% milk for 30 minutes at 37° C. The membranes were then washed in TBST (TBS with 0.05% Tween 20) and incubated overnight with antiphoshphotyrosine monoclonal antibody (1.5 μg/mL) in TBST. The primary antibody was removed, and the membranes were washed four times in TBST. […]

## Clc1cc2c(cc1Cl)Oc1cc(Cl)c(Cl)cc1O2 [TCDD, 2,3,7,8-tetrachlorodibenzo-p-dioxin]
[1]; assuming a 20 g mouse
  amount of dioxin equivalents required to initiate tyrosylphosphorylation of 37 kDalton protein: 5 ng
[1]; extract of a 10 g sample, 37 kDalton protein
  limit of detection, dioxin equivalents in sample: 400 parts per trillion
[2]; assuming a 100 μL incubation well
  amount of dioxin equivalents required to initiate tyrosylphosphorylation of 57 kDalton protein: approximately 37.5 pg
[2]; extract of a 2 g sample
  limit of detection, dioxin equivalents in sample (57 kDalton protein): 20 parts per trillion
[2]; response at the EC50 of 0.04 nM
  limit of detection based on 33 kDalton protein: approximately 4 ppt

Source: US5496703A, “Indirect immunoassay for dioxinlike compounds” (priority 1993, dated 1996)
